Results reported in publication PMC6991692.

Protein sequences, listed by entry. Tags and fused reporters are not part of them. Lines headed by an entry give the natural chain unless they say otherwise; changes in a name come on top.
UniProt Q8BGW2: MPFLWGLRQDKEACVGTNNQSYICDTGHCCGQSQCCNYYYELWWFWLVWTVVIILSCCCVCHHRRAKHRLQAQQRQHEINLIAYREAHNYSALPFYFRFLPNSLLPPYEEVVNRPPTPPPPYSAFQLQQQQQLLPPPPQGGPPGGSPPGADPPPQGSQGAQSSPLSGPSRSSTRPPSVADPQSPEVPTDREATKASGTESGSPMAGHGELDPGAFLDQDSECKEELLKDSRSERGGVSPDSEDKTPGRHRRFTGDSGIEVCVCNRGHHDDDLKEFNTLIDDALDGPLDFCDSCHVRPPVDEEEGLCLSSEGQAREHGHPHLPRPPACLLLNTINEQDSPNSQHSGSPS
UniProt Q8C863: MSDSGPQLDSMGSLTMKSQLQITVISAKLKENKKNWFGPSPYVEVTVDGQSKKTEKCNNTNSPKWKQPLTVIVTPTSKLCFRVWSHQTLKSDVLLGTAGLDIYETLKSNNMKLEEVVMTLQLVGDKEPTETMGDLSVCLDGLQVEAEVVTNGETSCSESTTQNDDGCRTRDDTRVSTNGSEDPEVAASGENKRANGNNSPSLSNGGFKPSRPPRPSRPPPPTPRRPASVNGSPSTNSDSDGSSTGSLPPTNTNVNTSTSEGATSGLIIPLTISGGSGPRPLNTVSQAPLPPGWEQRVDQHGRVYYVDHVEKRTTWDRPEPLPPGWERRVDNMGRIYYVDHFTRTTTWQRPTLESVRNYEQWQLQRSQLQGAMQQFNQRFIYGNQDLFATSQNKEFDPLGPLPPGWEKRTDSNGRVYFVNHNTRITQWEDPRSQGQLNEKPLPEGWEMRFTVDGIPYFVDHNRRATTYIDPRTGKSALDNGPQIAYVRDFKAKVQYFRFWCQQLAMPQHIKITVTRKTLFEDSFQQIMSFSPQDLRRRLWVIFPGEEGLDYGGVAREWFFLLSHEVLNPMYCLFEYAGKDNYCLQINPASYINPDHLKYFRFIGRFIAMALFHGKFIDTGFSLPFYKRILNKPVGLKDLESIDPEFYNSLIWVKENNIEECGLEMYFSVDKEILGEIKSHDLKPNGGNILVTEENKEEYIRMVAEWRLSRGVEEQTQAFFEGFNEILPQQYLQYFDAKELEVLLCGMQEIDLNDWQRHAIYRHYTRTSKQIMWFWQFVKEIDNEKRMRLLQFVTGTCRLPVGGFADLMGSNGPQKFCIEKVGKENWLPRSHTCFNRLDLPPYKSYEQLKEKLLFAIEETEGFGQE
UniProt Q9DBH0: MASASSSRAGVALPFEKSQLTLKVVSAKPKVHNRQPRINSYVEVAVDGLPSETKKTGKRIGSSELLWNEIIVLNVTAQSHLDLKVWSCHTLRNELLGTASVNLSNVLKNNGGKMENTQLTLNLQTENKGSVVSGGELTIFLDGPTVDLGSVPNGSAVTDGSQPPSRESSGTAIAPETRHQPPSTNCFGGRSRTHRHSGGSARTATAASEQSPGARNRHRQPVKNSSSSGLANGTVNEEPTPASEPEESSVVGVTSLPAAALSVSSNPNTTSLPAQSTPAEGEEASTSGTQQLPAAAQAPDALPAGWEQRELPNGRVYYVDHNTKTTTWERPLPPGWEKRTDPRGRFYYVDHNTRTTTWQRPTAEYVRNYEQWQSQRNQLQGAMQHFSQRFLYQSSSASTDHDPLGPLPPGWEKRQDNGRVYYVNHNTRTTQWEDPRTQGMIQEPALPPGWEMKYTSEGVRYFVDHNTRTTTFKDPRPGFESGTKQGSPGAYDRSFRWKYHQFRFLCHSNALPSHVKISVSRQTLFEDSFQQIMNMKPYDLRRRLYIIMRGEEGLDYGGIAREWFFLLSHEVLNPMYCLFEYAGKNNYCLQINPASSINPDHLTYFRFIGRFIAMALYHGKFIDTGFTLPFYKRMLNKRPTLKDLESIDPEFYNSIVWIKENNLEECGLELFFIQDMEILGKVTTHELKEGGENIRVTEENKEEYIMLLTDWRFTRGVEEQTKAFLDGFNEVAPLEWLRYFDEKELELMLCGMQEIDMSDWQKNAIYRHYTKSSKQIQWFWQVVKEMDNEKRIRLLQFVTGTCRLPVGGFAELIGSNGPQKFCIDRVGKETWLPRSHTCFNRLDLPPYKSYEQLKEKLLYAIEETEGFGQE

Assays:
[1] = target: WBP1LΔN‐Myc (with segment containing all WW binding motifs deleted) (UniProt Q8BGW2); experiment: co-IP; HEK293 cells transfected with WBP1L‐Myc or WBP1LΔN‐Myc together with ITCH or WWP2; WBP1L immunoprecipitation, immunoblot with antibody to ITCH or WWP2
[2] = target: WBP1LΔN expressed in J774 macrophage‐like cell line (UniProt Q8BGW2); experiment: co-IP; J774 macrophage‐like cell line expressing wild‐type WBP1L or WBP1LΔN; endogenous ITCH co‐isolated (Figure S5)

| binding [1] | binding [2] | Substance |
| --- | --- | --- |
| no binding |  | ITCH, co‐expressed in HEK293 cells (from UniProt Q8C863 1-864) (enzyme) |
|  | no binding | ITCH, endogenous (from UniProt Q8C863 1-864) (enzyme) |
| no binding |  | WWP2, co‐expressed in HEK293 cells (from UniProt Q9DBH0 1-870) (enzyme) |

No constants are given. Whether binding was seen depends on the method and setting. Binding seen in cells or lysates may run through a third protein.
